Results on one sequence are retold here after publication PMC5996148.

Test systems include OPA3 (human); OR2G3 (human); OR4D6 (human); OR9G1 (human); ORM1 (human); ORM2 (human); ORMDL2 (human); OSBPL1A (human); OSBPL2 (human); OSBPL3 (human); OSBPL9 (human); OSTF1 (human); OSTbeta (human); OTUB1 (human); OTUB2 (human); Optineurin (human).
Holding throughout (experiment): protein microarray (ProtoArray v5.0), streptavidin-Alexa Fluor 647
What all share (conditions): 3'-biotin; 20 mM Tris (pH 7.5), 5 mM MgCl2, 100 mM KCl, 0.1% Tween-20, A/T-rich and random oligonucleotide blockers; temperature not stated; high values mean tight binding

The target in a further assay is T1, OTUD6B (UniProt Q8N6M0).
T1 sequence: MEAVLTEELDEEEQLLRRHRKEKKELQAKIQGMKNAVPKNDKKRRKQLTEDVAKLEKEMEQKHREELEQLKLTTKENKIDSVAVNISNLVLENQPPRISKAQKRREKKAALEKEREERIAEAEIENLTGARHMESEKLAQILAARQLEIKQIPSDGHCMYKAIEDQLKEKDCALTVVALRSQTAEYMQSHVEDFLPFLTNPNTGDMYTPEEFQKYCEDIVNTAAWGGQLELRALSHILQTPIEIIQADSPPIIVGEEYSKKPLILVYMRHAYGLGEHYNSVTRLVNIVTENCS

The subject of assay [1] is Olfactomedin-like protein 2B (human).
The test system of assay [2] is Olfactory receptor 3A1 (human).
Assay [3] has as its system Olfactory receptor 56B4 (human).

Values joined by “and” are separate entries in the source; they are usually repeats but may differ in a detail not shown here. Equal entries are not always repeated. The list shows a part of the results. For some assays here: The source does not settle which construct or isoform was used.

For the sequence “GGGAGGCTGAGGCAGG [G4-1 biotinylated (PQS2)]”, the binding signal in the assay on OPA3 (human) was -0.343 z-score; with OR2G3 (human) it was -0.235 z-score; in the assay with OR4D6 (human) it was -0.314 z-score; with OR9G1 (human), -0.303 z-score; with ORM1 (human), -0.347 z-score; in the assay with ORM2 (human) it was -0.341 z-score. For the same sequence, the binding signal is -0.317 z-score in the assay on ORMDL2 (human); -0.336 z-score in the assay on OSBPL1A (human); -0.313 z-score with OSBPL2 (human); -0.268 z-score in the assay on OSBPL3 (human); -0.337 z-score in the assay with OSBPL9 (human); -0.33 z-score in the assay on OSTF1 (human). Besides, the binding signal was -0.354 z-score in the assay on OSTbeta (human); -0.289 z-score and -0.351 z-score in the assay with OTUB1 (human); -0.346 z-score in the assay with OTUB2 (human); 8.13 z-score with OTUD6B; -0.303 z-score in assay [1]; -0.352 z-score in [2]. For the same sequence, the binding signal was -0.31 z-score in assay [3] and -0.355 z-score with Optineurin (human).
